Measurements as given in PMC7549839, “Posttranslational insertion of small membrane proteins by the bacterial signal recognition particle” (PLoS Biology, 2020).
Results are given in words; binding and its absence hold for the method and conditions named. In cells and extracts the contact can be indirect. Some results given as binding are weak or reduced against the parent protein; the word gives no strength.

How the values were obtained:
[1] = target: T1, MtlA-189 ribosome-associated nascent chain (E. coli) (UniProt P00550); test: cross-linking; as the DSS cross-linking of MtlA-189 RNCs with purified SRP, but puromycin (1 mM) added prior to DSS; only the binder purified
T1 sequence: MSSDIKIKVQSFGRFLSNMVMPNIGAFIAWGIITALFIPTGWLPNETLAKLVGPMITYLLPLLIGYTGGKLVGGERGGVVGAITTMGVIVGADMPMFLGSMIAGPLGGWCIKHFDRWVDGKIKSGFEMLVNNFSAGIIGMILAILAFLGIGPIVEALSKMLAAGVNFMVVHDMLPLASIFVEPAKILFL

[2] = target: T1, MtlA-189 ribosome-associated nascent chain (E. coli); test: cross-linking; DSS cross-linking of in vitro synthesized MtlA-189 RNCs with added purified SRP; HEPES/NaOH pH 7.5, 30 min at 25 C; SDS-PAGE, autoradiography; only the binder purified

B1: signal recognition particle (SRP), purified (complex, UniProt P0AGD7 1-453)
chain: MFDNLTDRLSRTLRNISGRGRLTEDNVKDTLREVRMALLEADVALPVVREFINRVKEKAVGHEVNKSLTPGQEFVKIVRNELVAAMGEENQTLNLAAQPPAVVLMAGLQGAGKTTSVGKLGKFLREKHKKKVLVVSADVYRPAAIKQLETLAEQVGVDFFPSDVGQKPVDIVNAALKEAKLKFYDVLLVDTAGRLHVDEAMMDEIKQVHASINPVETLFVVDAMTGQDAANTAKAFNEALPLTGVVLTKVDGDARGGAALSIRHITGKPIKFLGVGEKTEALEPFHPDRIASRILGMGDVLSLIEDIESKVDRAQAEKLASKLKKGDGFDLNDFLEQLRQMKNMGGMASLMGKLPGMGQIPDNVKSQMDDKVLVRMEAIINSMTMKERAKPEIIKGSRKRRIAAGCGMQVQDVNRLLKQFDDMQRMMKKMKKGGMAKMMRSMKGMMPPGFPGR
**Q.** How did the binding [1] turn out when B1 was run?
**A.** no binding (condition: after puromycin (1 mM) treatment)

**Q.** What about the binding [2] of the same binder?
**A.** binds
